Values quoted from earlier work, collected in patent publication US7022850B2, “Bicyclicpyrimidones and their use to treat diseases” (Bristol-Myers Squibb Co., priority 2003, dated 2006).
At least one compound was matched to its structure with a doubt left.

What was measured:
[1] = tested on: mitotic spindle
[2] = tested on: related kinesin motor

SMILES: CCOC(=O)C1=C(C)NC(=S)NC1c1cccc(O)c1 (stereo not drawn) [monastrol]
- cell cycle arrest in mitosis, persistence [1]: reversible
- mitotic spindle phenotype [1]: induced the formation of an aberrant mitotic spindle
- effect upon the related kinesin motor [2]: no apparent effect
